The assay addresses T1, Aromatase (Homo sapiens, UniProt P11511).
T1 sequence (P11511 whole entry): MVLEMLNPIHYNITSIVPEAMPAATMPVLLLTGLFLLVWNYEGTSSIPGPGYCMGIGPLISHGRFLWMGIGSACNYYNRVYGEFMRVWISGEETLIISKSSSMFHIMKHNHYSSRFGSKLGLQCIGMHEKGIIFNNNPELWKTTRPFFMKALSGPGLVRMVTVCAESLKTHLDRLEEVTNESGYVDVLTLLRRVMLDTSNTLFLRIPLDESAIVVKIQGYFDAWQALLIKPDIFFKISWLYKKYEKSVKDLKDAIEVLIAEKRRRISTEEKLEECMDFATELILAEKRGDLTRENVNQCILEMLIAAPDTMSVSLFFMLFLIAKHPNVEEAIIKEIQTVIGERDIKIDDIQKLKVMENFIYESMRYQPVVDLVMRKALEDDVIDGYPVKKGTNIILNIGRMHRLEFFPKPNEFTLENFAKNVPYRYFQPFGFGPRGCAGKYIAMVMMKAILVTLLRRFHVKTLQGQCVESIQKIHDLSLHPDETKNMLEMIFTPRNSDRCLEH
Description: Inhibition of CYP19 in human placental microsomes. Details: species or system Placenta.

What is called IC50 is the point on the concentration scale where inhibition reaches its midpoint. Read a high IC50 as lower potency. In the case of `O=C(c1ccccc1)c1ccc(Cn2ccnc2)cc1`, 252 nM corresponded to half-maximal inhibition (IC50).
